Reference: the supplement of paper PMC12764529
± gives the half width of the 95% confidence interval. For many entries, trypsin and chymotrypsin gave values far apart.

How the values were obtained:
[1] = folding stability dG unfold (combined trypsin and chymotrypsin); higher = more stable
Description: (§1)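 Folding stability of de novo designed mini-proteins (<80 aa, no Cys; designed by TrROS, TrMRF, ProteinMPNN and the joint model) was measured by cDNA display proteolysis with trypsin and chymotrypsin. Each protease was used at 11 concentrations in a threefold dilution series plus a no-protease condition. K50 was inferred by Bayesian fitting of sequencing counts, and dG unfold was derived against a sequence-predicted unfolded-state K50 (Tsuboyama et al. method). Sequences shown include variable-length N-terminal GS-type padding (SAGGSAGG...) inside a display construct carrying a PA tag. Rows were kept only if the AF2 dimer inter-PAE was >15, to exclude likely homo-oligomers.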

[2] = folding stability dG unfold from trypsin proteolysis; higher = more stable
Description: as §1

[3] = folding stability dG unfold from chymotrypsin proteolysis; higher = more stable
Description: as §1

Sequence | folding stability dG unfold [1] | folding stability dG unfold [2] | folding stability dG unfold [3]
SAMTITITTKDGKKITITINEDGTITITIDGKKKTITIKPGETITSITFDKDTGKISITVNGKTIVLEASAG [r14_276_TrROS_Hall] | > 6 kcal/mol | 3.91 ± 0.16 kcal/mol | 
SAGGSAGGSAGGPVVNILVKHPNGKKETISVDVKEENIGEVATDILPKGYEVLEPSVFPGSAGGSAGGSAGG [r7_159_TrMRF] | < -1 kcal/mol | -0.258 ± 0.1 kcal/mol | 
SAGGKIKIKLKDGTVIEIEITEVKTNKNGEKVAIFKAKVYDKKTGKVYEITITINKNGEIKIEIKPISAGGS [r16_651_TrROS_Hall] | > 6 kcal/mol | 2.99 ± 0.45 kcal/mol | 
SAGGSAGGSAGGTIRFPNGAEITEIQFNDNGYIRIEGEYRTPGGPKRVEIWIPLSPEDAKSAGGSAGGSAGG [r7_38_TrROS] | 0.224 ± 0.25 kcal/mol | 1.02 ± 0.085 kcal/mol | 
SGSPSTPVTITVEFPPRLTTVLYREPTRPPLGYLLVPEPSRTETITVPVSEVAAVKAELEPRGMTVTVTASA [r9_167_JUSTAS] | < -1 kcal/mol | -0.69 ± 0.33 kcal/mol | 
SAGGSASYSSLKITIIDTGTTTTVPPGATTTPTVVKLPDNKTAIITTTTPPDGTTATTVELFDNDKSAGGSA [r15_559_JUSTAS] | < -1 kcal/mol | -0.717 ± 0.12 kcal/mol | 
SAPPYVYITIRVEVERNPNGQRKHKVDVTVRFPDPNMTLEQALDMAKEAADNFAEENGYDVKIDDIEIMSAG [r14_190_TrROS] |  | 2.16 ± 0.43 kcal/mol | 
SAGGSAGGSAGAPKSVSVPLLRPDGKPVLVTQTDDRVFVYDLGPDRWATFPAKDVPPGVASAGGSAGGSAGG [r11_155_TrMRF] | 0.335 ± 0.13 kcal/mol |  | 1.23 ± 0.18 kcal/mol
SAGGSAGGKVVLDPARREVLLQLPDGRWVRGKLVRAEAIPPTGRAVLEVVFELDGVEVPATIEFSAGGSAGG [r6_962_TrMRF] | 2.67 ± 0.027 kcal/mol |  | 3.065 ± 0.017 kcal/mol
SAGGSAGGSMKPSLRVLEVPVPVPPGESPEAVAARLAAEPRVRVLEVLEVDPATGRVTLLVVESAGGSAGGS [r12_712_JUSTAS] | 0.629 ± 0.044 kcal/mol |  | 1.1 ± 0.044 kcal/mol
SAGGSAVRIKVWPPNGKEQWIPIPSSMTPSTVQEMAENLADDWQEQNGNKNVKVEVDPDNGWIRIRSAGGSA [r15_33_TrROS] | -0.0158 ± 0.066 kcal/mol |  | 0.197 ± 0.084 kcal/mol
SAGGSAGGSADEELERLRRRAPAPRPKVRLEIRAETAEEAEAAARALLAAGVDEVEVVRVPESAGGSAGGSA [r18_258_TrROS_Hall] | 0.787 ± 0.17 kcal/mol |  | 1.29 ± 0.09 kcal/mol
SAGGSAGGSAGSMTVTVDVTISPLPESDEVLVTITTYVNGVPVTTPVRVDPETAAALIAASAGGSAGGSAGG [r11_700_JUSTAS] | 1.44 ± 0.14 kcal/mol |  | 1.95 ± 0.083 kcal/mol
SAGGSAGGMREKIEKAVATGEGGPLVVPVPSPEEEEEVRRIKEEFPEVEVKAVPPEEMPPDYARSAGGSAGG [r6_87_JUSTAS] | 0.488 ± 0.18 kcal/mol |  | 1.09 ± 0.054 kcal/mol
SAGGSAGGSAGGPLTLVITDLPLEEAEALAARLRALGIDVEVFVVPVEREPRPLEPVARSAGGSAGGSAGGS [r10_361_TrMRF] | 1.87 ± 0.091 kcal/mol |  | 2.41 ± 0.046 kcal/mol
SAGGSAGGSAGGTVRPGQTIPDVPVKIRNPDNNKEHTRTFPPGENIADLANKNGFEIEPSAGGSAGGSAGGS [r10_202_TrROS] | 0.723 ± 0.16 kcal/mol |  | 1.48 ± 0.13 kcal/mol
MKIEIEKPIKTEEEAKEFIKELLKELNIPEGTKVEITMSTEPETGDLIATVTVTLPDGTVIEITVKFPREES [r1_84_JUSTAS] | 3.03 ± 0.23 kcal/mol |  | 2.35 ± 0.1 kcal/mol
SAGGSAGGSAGGPGAFYIPETGAVAVVRTLPDGSKVVVLTFPDGPVQTALLDPDGHLLPSAGGSAGGSAGGS [r10_299_TrMRF] | 1.85 ± 0.049 kcal/mol |  | 2.315 ± 0.021 kcal/mol
SAGGSAGGSAGGSRPYRIGNGRLLVVLPGDGVLAYDPATGTWKVYPLSNPKPILLPKDALSAGGSAGGSAGG [r7_299_TrMRF] | 0.709 ± 0.077 kcal/mol |  | 1.39 ± 0.1 kcal/mol
STLEDFVVTSTSDKTLPDGSPETVETAGDYTLTFNPATGEYTLYKGDKEVLKKLVPAKGPDPTNPAVVARSA [r9_1065_JUSTAS] | 0.984 ± 0.04 kcal/mol |  | 1.55 ± 0.045 kcal/mol
SAMTTTETFEEGDYVYTVITTKIPSSLPPDSVVTIPVTTPLGAESEVVSEPGGTITVKVRLKKEDPELLSAG [r14_754_JUSTAS] | -0.176 ± 0.13 kcal/mol |  | 0.14 ± 0.088 kcal/mol
SAGMSPEERERLERLRRELERLEREEELLRERAEELGLSEEEAARREREERLRRLREELERLERRPEESAGG [r19_305_TrROS_Hall] | 3.02 ± 0.11 kcal/mol |  | 3.33 ± 0.047 kcal/mol
SAGGSAEAEAEVEFDPETGRLRVRVRFPDSDETVEREIEVPPVPPIPPEDVERARRAAAEGRESDLSAGGSA [r15_631_TrMRF] | 1.5 ± 0.051 kcal/mol |  | 1.998 ± 0.018 kcal/mol
SAGGSVTLPPEEARAYAEAHPDRDLVLSMRPDDSTVTLELSVDPAAPGALSVRRREVFDPAGNATVVDSAGG [r13_481_JUSTAS] | -0.182 ± 0.15 kcal/mol |  | 0.308 ± 0.13 kcal/mol

Sequence | folding stability dG unfold [1] | folding stability dG unfold [2] | folding stability dG unfold [3]
SAGGSDKEEKEKEIDIRIVQVPWDDARELAEESDDPVIFMLPDGHIHIFKGDGKVEPFPIPDPEEFSAGGSA [r2_34_TrROS] | 0.0224 ± 0.12 kcal/mol |  | 0.199 ± 0.15 kcal/mol
SAGGNWLIKIEVENLPPGAHIMFPNGRSIPPGKEFTIPLDAPFDNIMVHGPDGKIIDVERVPLDKPDDSAGG [r13_441_TrROS] | 0.74 ± 0.19 kcal/mol |  | 1.26 ± 0.089 kcal/mol
SKPIPVKITIETKTNPNGEPITTITIDKGDKTYSLPLGNAKILEIDPEKQYIIIYNPETGSILILKPSDLSA [r9_1186_TrMRF] | 2.95 ± 0.058 kcal/mol |  | 3.14 ± 0.06 kcal/mol
SAGMPPVVVVEVPFRVTHHADPGTVTVEARFLLEDEEFTATFTLPAPPALAALPPGATVDVPALAVLLDSAG [r5_714_TrMRF] | 2.63 ± 0.12 kcal/mol |  | 3.19 ± 0.051 kcal/mol
SAGGSAVKPGERVFFPIVVPVDPSTTPEALRRAVEALLPPGARVRVFEDPERRVALVLVEVDVPDESAGGSA [r15_749_TrMRF] | 2.04 ± 0.07 kcal/mol |  | 2.54 ± 0.032 kcal/mol
SYLELTFTLPATGAVVRLRFDPTTGRAEVVARPPTGPAVGGSWEVRGDRLRVVLYDPSGRPLATLELPLASA [r9_665_TrMRF] | 3.45 ± 0.097 kcal/mol |  | 3.81 ± 0.051 kcal/mol
SAGGSAGGSASSMVTVTVSVSPDEGDEEVAKEIAKELGRPDAKVTKITYDPATGTLTITLVDSAGGSAGGSA [r18_481_JUSTAS] | 1.58 ± 0.11 kcal/mol |  | 1.53 ± 0.062 kcal/mol
SAGGKKIEIKEGDTVKLKNATITLNGKTFKIKDAEAKVVKVDKKKKKVIIEITLKNGKKETFVFDIKSAGGS [r8_215_TrROS_Hall] | 3.15 ± 0.16 kcal/mol |  | 3.331 ± 0.026 kcal/mol
SAGGSAGGMTAADLAAALAGPVPPLRVVEVAIPVHPDETLEEALELARRLGEELGADVVILHVASAGGSAGG [r6_516_TrMRF] | 0.774 ± 0.12 kcal/mol |  | 1.51 ± 0.068 kcal/mol
SAGGSAGGSAGPSVSVSPTSLTVTFPLGDATLTITFDPLSGGVSVSVSPLPVAPLAPDEASAGGSAGGSAGG [r11_788_TrMRF] | 1.25 ± 0.16 kcal/mol |  | 1.67 ± 0.073 kcal/mol
SAGKLKPGDPVKIKIEIERDPGNGMVRVTYKIEFKDGMYVTMIIPPNGPIHVEIFNPDDGKEREETIPLSAG [r5_55_TrROS] | 2.46 ± 0.26 kcal/mol |  | 2.67 ± 0.096 kcal/mol
SAGGSAGGSAGGPMKVFSYTIKPGGEVLNPIPLPPGSVVTTSPDPATGTQNVTIEVPELLSAGGSAGGSAGG [r11_32_JUSTAS] | 1.14 ± 0.18 kcal/mol |  | 2.41 ± 0.041 kcal/mol
SAGGSAGGSAKPPVIKVRIRVRYPENGEWKEIEIEVPEGATEEEIAKAIKEKFPEIEKIEIESAGGSAGGSA [r18_195_TrROS_Hall] | > 6 kcal/mol |  | 2.52 ± 0.25 kcal/mol
STLEQILDAIESMPPGWVFRIKIHHPNGEPHEHRFNMTYDDIKAQLENMIDHHPGQPIKIKIEFMPPEDFSA [r9_37_TrROS] | 3.38 ± 0.064 kcal/mol |  | 3.72 ± 0.077 kcal/mol
SAGGSAGGSAGGSGMGVKATFEINFWALNPDGNLMPMNITVEVEVPVPPPPPPKDPDGKSAGGSAGGSAGGS [r4_325_TrROS] | 2.43 ± 0.17 kcal/mol |  | 2.91 ± 0.051 kcal/mol
SAGGMTMTLTHPDSDTVFTLPPEIQKAVDSGDEEAIAALPPEIRAALAAVAERTVTPLPSAVATTTAGSAGG [r13_233_JUSTAS] | 0.883 ± 0.16 kcal/mol |  | 1.44 ± 0.14 kcal/mol
SAGGMSSTETRVLETEPGASPDGSSLVKSEVTFTEGDSPVYTELYETEVTYLPDGTVETKTSRTVVPSAGGS [r8_170_JUSTAS] | 0.553 ± 0.061 kcal/mol |  | 1.06 ± 0.043 kcal/mol
SMITVTVPVSSSGGSVSVSEVRAAIRAALPADWAVGASDEELRALIEAAAAANGGPIAPAAHPLEVLVTGSA [r9_197_JUSTAS] | 0.924 ± 0.042 kcal/mol |  | 1.507 ± 0.013 kcal/mol
SAGGSAGGSAAATIELLNADGEPVTATVERRPDGSVNVTVTFPGGAKAEFTFAEGEEVRLPGSAGGSAGGSA [r18_115_TrMRF] | 1.65 ± 0.035 kcal/mol |  | 1.936 ± 0.012 kcal/mol
SSPVVVSESTDPNSSTKTITVTLPPNARVTLTLPGEPVETRPQPDATATLTTGPDALDITIEPLPPGVPLSA [r9_221_JUSTAS] | -0.714 ± 0.24 kcal/mol |  | 0.474 ± 0.1 kcal/mol
SAGGSAGGSAGGPASPTVTTVPLPDGSTATRTTTDELTTVTVPNGPTLTYNPSPPVLAGSAGGSAGGSAGGS [r10_1176_JUSTAS] | 0.584 ± 0.05 kcal/mol |  | 1.15 ± 0.018 kcal/mol
SAGGSAGGSAGGSIWIPAKDIEEFAEELSDDHGWTVEIEPHPGPPWIPIEIEPPPPGDMSAGGSAGGSAGGS [r4_419_TrROS] | 1.28 ± 0.17 kcal/mol |  | 1.55 ± 0.065 kcal/mol
SALPLPSSAKVELEWELVGVDPGSKGAKVYYRRTLKVTFPTGSLTVTYLVEYDPETGTFSWSITSVSPESAG [r14_293_TrMRF] | 5.38 ± 0.21 kcal/mol |  | 5.65 ± 0.095 kcal/mol

Record cards (already shown):
SAGGSAGGSADEELERLRRRAPAPRPKVRLEIRAETAEEAEAAARALLAAGVDEVEVVRVPESAGGSAGGSA [r18_258_TrROS_Hall] is entered as folding stability dG unfold [1]: 0.787 ± 0.17 kcal/mol; folding stability dG unfold [3]: 1.29 ± 0.09 kcal/mol
SAGGSAGGKVVLDPARREVLLQLPDGRWVRGKLVRAEAIPPTGRAVLEVVFELDGVEVPATIEFSAGGSAGG [r6_962_TrMRF] is entered as folding stability dG unfold [1]: 2.67 ± 0.027 kcal/mol; folding stability dG unfold [3]: 3.065 ± 0.017 kcal/mol
SAGGSAGGSAGSMTVTVDVTISPLPESDEVLVTITTYVNGVPVTTPVRVDPETAAALIAASAGGSAGGSAGG [r11_700_JUSTAS] is entered as folding stability dG unfold [1]: 1.44 ± 0.14 kcal/mol; folding stability dG unfold [3]: 1.95 ± 0.083 kcal/mol
